The other results are listed elsewhere or left out.
Tests used:
Experiment in all cases: log2 fold change, soluble protein after heating vs DMSO (PISA); higher = thermal stabilisation; K562 lysate, 10 uM; active = over 0.2 and 3.5 SD of the protein, either way, in both replicates (recomputed)
[1] = compound: C1=CC=C(C=C1)[C@H](COC2=CC3=C(C=C2)NC(=O)N3)NC(=O)C4=CC=CN(C4=O)CC5=CC(=C(C=C5)F)F
How it was run: (§1)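 A 30 min treatment with 10 μM compound was applied to crude K562 extract at 1 mg/mL protein in PBS pH 7.4 with 1 mM MgCl2. Heating for 3 min spanned 48°C-58°C, after which aliquots were pooled, adjusted to 0.5% NP-40 at 4°C and spun at 21,000xg for 90 min. TMTpro 16plex LC-MS/MS of the supernatant, with channel sums equalised, gave values recorded as log-two fold change in thermal stability against solvent controls, from duplicates.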

By UniProt entry, the sequences of proteins in these tests, tags left out. Where a name states a change or a piece, a line headed by the entry shows the natural chain unless it says otherwise.
UniProt P15260: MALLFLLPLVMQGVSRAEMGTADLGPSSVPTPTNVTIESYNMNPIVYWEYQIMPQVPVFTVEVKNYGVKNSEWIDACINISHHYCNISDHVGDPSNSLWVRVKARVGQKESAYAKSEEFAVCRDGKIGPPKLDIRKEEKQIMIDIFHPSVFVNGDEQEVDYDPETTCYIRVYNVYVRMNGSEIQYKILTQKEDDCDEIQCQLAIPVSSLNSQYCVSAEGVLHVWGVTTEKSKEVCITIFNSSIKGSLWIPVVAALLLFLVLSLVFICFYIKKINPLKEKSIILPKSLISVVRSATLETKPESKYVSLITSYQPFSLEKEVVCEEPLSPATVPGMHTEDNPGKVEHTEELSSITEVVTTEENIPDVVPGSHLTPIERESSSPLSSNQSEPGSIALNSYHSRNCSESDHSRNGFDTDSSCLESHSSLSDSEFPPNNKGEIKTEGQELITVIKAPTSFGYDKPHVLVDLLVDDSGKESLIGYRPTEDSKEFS
UniProt P04792, whole entry, looked up: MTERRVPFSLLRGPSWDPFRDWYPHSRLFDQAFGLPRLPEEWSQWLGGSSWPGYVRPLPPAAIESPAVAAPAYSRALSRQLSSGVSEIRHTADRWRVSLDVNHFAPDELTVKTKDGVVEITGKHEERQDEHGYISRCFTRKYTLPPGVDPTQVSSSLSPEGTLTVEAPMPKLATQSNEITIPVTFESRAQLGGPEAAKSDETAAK
UniProt P41252: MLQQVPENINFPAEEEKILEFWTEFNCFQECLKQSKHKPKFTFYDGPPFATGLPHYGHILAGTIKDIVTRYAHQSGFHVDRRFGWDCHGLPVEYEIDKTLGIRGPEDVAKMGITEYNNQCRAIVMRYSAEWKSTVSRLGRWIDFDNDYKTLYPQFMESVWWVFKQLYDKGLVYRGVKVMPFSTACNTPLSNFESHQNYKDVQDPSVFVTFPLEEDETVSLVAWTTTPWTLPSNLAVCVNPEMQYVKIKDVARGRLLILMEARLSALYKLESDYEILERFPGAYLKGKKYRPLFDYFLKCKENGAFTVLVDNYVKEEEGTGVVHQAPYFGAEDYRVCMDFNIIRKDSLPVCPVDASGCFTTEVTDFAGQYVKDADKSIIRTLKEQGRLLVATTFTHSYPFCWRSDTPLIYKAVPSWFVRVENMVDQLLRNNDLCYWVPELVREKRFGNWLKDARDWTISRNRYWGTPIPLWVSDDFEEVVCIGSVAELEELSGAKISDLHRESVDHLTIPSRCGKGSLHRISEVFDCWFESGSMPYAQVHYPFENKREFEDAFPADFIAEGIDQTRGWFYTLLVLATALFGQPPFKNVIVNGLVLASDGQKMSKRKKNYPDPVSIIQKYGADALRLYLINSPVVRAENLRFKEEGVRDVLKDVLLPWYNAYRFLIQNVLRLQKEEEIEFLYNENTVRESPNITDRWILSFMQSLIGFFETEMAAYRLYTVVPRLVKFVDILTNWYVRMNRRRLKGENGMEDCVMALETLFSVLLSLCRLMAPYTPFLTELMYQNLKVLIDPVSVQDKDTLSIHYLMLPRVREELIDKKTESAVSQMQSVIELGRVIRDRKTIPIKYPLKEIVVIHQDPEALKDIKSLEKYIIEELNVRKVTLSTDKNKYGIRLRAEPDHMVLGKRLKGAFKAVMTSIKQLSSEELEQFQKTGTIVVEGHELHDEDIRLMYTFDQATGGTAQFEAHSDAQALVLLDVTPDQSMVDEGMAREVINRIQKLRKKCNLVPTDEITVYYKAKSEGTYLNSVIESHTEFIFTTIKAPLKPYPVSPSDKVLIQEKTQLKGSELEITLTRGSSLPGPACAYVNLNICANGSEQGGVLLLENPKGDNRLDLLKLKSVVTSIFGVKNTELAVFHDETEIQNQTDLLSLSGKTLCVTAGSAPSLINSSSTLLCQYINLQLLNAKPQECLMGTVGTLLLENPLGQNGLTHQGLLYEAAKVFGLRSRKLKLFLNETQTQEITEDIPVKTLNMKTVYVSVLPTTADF
UniProt A2RU49: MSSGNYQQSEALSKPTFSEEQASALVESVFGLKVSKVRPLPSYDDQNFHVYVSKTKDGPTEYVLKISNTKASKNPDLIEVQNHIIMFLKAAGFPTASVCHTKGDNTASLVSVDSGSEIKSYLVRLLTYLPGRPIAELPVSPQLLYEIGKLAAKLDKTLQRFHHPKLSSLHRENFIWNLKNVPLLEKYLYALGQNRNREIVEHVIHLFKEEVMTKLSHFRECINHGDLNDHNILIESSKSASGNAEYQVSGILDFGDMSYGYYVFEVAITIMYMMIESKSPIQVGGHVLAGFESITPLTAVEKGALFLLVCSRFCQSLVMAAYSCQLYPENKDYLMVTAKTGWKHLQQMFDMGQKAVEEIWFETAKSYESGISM
UniProt Q12906, whole entry, looked up: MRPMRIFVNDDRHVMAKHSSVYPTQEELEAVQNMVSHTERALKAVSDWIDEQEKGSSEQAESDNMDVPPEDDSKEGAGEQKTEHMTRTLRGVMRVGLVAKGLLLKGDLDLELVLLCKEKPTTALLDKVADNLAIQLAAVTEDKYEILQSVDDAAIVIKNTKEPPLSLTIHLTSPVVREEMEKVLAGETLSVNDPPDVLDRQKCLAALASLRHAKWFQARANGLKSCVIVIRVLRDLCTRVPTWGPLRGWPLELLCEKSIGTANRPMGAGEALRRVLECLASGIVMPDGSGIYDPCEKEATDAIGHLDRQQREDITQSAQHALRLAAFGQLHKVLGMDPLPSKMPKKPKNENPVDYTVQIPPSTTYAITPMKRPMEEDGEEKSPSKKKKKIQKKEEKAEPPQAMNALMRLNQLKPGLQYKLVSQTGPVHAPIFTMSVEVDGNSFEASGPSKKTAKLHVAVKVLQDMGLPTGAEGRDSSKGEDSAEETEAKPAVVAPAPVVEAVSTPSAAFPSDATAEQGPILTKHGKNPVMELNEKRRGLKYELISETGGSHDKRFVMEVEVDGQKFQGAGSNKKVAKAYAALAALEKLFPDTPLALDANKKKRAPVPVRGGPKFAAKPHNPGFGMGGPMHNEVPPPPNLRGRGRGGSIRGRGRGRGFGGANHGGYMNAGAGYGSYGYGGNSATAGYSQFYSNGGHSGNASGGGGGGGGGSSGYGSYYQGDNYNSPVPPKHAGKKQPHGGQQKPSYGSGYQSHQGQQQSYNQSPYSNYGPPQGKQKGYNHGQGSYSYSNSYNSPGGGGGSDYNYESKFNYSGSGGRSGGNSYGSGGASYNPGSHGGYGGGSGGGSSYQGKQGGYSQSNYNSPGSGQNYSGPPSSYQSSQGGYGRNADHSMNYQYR
UniProt Q9Y547: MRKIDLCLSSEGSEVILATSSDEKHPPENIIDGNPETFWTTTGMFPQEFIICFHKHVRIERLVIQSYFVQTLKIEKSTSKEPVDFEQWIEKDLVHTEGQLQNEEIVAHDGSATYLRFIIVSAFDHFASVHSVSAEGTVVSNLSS
UniProt Q14116, whole entry, looked up: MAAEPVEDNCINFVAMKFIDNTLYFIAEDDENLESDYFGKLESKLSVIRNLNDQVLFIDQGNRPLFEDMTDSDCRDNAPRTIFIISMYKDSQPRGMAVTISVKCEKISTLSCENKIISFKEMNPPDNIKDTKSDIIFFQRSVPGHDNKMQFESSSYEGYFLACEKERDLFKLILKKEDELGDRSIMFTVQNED
UniProt Q9NVM9, whole entry, looked up: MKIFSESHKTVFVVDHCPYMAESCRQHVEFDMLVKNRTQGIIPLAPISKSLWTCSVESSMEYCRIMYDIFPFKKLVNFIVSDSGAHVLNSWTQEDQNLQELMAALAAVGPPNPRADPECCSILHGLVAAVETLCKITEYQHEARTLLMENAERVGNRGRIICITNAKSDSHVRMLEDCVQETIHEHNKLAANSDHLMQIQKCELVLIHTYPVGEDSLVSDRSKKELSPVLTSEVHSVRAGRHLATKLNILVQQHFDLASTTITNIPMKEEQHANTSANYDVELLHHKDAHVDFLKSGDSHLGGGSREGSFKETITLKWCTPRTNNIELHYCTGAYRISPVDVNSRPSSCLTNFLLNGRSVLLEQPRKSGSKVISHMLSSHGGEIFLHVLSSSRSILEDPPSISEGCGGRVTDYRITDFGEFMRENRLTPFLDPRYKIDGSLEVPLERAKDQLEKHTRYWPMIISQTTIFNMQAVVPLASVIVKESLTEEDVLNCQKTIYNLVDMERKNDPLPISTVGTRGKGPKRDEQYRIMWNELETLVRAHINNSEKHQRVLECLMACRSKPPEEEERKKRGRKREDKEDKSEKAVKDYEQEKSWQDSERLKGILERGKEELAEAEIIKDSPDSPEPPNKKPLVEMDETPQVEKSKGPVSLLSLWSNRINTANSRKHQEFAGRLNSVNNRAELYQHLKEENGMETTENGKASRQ
UniProt O60921: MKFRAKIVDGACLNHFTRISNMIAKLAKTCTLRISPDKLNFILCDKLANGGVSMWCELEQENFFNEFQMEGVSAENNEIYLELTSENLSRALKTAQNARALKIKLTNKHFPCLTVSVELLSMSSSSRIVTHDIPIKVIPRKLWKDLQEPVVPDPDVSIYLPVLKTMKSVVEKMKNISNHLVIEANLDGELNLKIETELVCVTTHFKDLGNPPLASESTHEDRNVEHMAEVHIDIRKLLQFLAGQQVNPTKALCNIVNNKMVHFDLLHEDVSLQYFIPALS
UniProt Q92598: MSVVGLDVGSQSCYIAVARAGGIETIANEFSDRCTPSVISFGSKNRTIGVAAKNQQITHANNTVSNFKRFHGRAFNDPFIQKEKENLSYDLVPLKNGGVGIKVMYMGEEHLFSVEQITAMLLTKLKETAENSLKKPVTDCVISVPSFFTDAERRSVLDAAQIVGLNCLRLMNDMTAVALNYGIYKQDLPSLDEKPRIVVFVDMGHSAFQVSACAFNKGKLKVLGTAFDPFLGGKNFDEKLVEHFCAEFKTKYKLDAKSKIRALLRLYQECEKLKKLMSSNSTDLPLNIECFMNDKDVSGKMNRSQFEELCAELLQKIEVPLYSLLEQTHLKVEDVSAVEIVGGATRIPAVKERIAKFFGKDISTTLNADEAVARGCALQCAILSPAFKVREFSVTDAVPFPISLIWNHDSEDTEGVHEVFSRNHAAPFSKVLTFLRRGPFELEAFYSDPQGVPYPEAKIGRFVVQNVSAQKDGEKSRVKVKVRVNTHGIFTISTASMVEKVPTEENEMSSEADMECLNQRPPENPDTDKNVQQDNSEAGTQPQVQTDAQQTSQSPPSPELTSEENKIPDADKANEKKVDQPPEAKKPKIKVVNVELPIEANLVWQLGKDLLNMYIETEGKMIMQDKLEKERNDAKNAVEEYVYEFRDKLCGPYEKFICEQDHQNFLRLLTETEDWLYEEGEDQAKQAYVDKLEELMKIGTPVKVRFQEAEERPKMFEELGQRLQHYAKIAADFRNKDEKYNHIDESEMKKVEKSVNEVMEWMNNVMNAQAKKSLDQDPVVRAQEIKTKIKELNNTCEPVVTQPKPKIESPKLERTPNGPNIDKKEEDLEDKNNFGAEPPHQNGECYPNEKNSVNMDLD
UniProt P13598: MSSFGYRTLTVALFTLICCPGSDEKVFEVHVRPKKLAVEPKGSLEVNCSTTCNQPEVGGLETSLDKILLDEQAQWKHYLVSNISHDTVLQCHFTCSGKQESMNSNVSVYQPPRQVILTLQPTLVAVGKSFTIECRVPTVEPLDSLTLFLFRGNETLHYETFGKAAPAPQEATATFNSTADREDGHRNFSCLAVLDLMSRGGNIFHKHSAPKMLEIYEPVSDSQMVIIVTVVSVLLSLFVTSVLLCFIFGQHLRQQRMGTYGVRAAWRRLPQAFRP
UniProt Q70UQ0: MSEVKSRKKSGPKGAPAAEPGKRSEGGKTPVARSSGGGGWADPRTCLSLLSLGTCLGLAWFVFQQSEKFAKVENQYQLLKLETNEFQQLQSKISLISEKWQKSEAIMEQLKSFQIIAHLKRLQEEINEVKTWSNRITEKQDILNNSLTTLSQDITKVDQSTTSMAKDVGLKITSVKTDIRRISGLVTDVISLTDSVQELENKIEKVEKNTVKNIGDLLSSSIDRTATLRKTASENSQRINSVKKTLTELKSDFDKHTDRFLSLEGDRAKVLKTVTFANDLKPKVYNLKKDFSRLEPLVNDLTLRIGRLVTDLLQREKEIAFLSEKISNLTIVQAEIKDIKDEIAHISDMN
UniProt Q13422: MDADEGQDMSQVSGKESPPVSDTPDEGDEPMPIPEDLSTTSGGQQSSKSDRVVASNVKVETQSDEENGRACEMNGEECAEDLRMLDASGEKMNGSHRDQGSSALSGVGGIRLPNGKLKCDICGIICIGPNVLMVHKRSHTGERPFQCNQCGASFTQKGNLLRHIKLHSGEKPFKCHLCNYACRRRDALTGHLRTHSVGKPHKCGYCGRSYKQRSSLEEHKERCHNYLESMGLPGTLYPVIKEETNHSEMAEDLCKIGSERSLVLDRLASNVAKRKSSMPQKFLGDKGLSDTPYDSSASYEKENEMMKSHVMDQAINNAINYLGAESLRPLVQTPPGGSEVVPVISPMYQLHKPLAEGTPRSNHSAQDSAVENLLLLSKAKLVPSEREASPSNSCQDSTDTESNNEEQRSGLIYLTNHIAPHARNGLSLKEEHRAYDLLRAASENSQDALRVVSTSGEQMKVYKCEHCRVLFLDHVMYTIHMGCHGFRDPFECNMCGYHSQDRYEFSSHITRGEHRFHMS

[2] = compound: CC1=C(SC2=C1C(=N[C@H](C3=NN=C(N32)C)CC(=O)N)C4=CC=C(C=C4)Cl)C
How it was run: as §1

[3] = compound: CC1=C2C(=CC=C1)N=C(N(C2=O)C3=CC=CC=C3C)CN4C=NC5=C(N=CN=C54)N
How it was run: as §1

[4] = compound: Cc1sc2c(c1C)C(c1ccc(Cl)cc1)=N[C@@H](CC(=O)OC(C)(C)C)c1nnc(C)n1-2
How it was run: as §1

[5] = compound: c1ccc([C@@H]2C[C@H]2NC2CCNCC2)cc1
How it was run: as §1

Measured: log2 fold change

IFNGR1 (UniProt P15260)
inactive: [1] 0.094 | [2] 0.083 | [3] 0.142 | [4] -0.299 | [5] -0.479

HSPB1 (UniProt P04792)
inactive: [1] -0.091 | [2] 0.002 | [3] 0.002 | [4] -0.017 | [5] 0.028

IARS (UniProt P41252)
inactive: [1] -0.027 | [2] 0.026 | [3] 0.025 | [4] 0.066 | [5] 0.047

IDS (UniProt P22304)
inactive: [1] -0.123 | [2] 0.139

HYKK (UniProt A2RU49)
inactive: [1] 0.092 | [2] -0.04

INTS12 (UniProt Q96CB8)
inactive: [1] 0.025 | [2] 0.044 | [3] 0.029 | [4] -0.172 | [5] 0.032

INTS1 (UniProt Q8N201)
inactive: [1] -0.017 | [2] 0.065 | [3] -0.045 | [4] 0.019 | [5] 0.004

ILF3 isoform 7 (UniProt Q12906)
inactive: [1] -0.003 | [2] 0.013 | [3] 0.007 | [4] -0.02 | [5] 0.002

HSPB11 (UniProt Q9Y547)
inactive: [1] -0.025 | [2] 0.018 | [3] 0 | [4] -0.047 | [5] 0.002

IL18 (UniProt Q14116)
inactive: [1] 0.032 | [2] -0.06 | [3] 0.004 | [4] -0.034 | [5] -0.027

INTS13 (UniProt Q9NVM9)
inactive: [1] -0.012 | [2] -0.044 | [3] 0.016 | [4] 0 | [5] -0.012

IDH3A (UniProt P50213)
inactive: [1] 0.003 | [2] -0.007 | [3] -0.041 | [4] 0.015 | [5] -0.021

INF2 (UniProt Q27J81)
inactive: [1] 0.016 | [2] 0.017 | [3] 0.015 | [4] -0.014 | [5] -0.06

HSPG2 (UniProt P98160)
inactive: [1] -0.02 | [2] 0.053 | [3] 0.036 | [4] -0.034 | [5] -0.067

HUS1 (UniProt O60921)
inactive: [1] 0.015 | [2] 0.031 | [3] 0.022 | [4] -0.035 | [5] -0.003

Quoted at random: two records from the list, in no set order.
IDH3A (UniProt P50213)
inactive: [1] 0.003 | [2] -0.007 | [3] -0.041 | [4] 0.015 | [5] -0.021

ILF3 isoform 7 (UniProt Q12906)
inactive: [1] -0.003 | [2] 0.013 | [3] 0.007 | [4] -0.02 | [5] 0.002

Continuation:

IKBKG isoform 2 (UniProt Q9Y6K9)
inactive: [1] 0.026 | [2] -0.031 | [3] 0.013 | [4] -0.004 | [5] -0.062

IFRD2 isoform 2 (UniProt Q12894)
inactive: [1] 0.022 | [2] 0.144 | [3] 0.029 | [4] -0.105 | [5] -0.108

HSPH1 (UniProt Q92598)
inactive: [1] 0.019 | [2] -0.028 | [3] 0.006 | [4] 0.008 | [5] -0.023

ICAM2 (UniProt P13598)
inactive: [1] 0.03 | [2] -0.025 | [3] -0.006 | [4] -0.022 | [5] 0.084

IKBIP isoform 4 (UniProt Q70UQ0)
inactive: [1] 0.018 | [2] -0.012 | [3] 0.024 | [4] -0.022 | [5] -0.03

HSPA8 (UniProt E9PK54)
inactive: [1] 0.065 | [2] -0.031 | [3] -0.031 | [4] -0.046 | [5] -0.125

IGSF3 (UniProt O75054)
inactive: [1] -0.009 | [2] -0.017 | [3] 0.046 | [4] 0.014 | [5] 0.017

IKZF1 (UniProt Q13422)
inactive: [1] -0.064 | [2] -0.024 | [3] -0.05 | [4] -0.073 | [5] 0.138

IK (UniProt Q13123)
inactive: [1] 0.019 | [2] -0.07 | [3] -0.019 | [4] -0.006 | [5] -0.03

HSPA6 (UniProt P17066)
inactive: [1] 0.012 | [2] 0.035 | [3] -0.066 | [4] -0.233 | [5] -0.066
